# Values of other authors in US8772267B2, “Treatment of spinal mechanical pain” (New York University, priority 2002, dated 2014).
# Test system: visceral pain induced by the administration of acetic acid
# Settings: cited from earlier work
smiles,measurement,setting,value
NCCCC(O)(P(=O)(O)O)P(=O)(O)O [alendronate],effect on visceral pain,injected intraperitoneally in mice,able to reduce visceral pain
same,analgesic doses relative to toxic doses,"intraperitoneal, mice",close to those that induce toxicity
